Measured values: paper PMC6484116, “The NifZ accessory protein has an equivalent function in maturation of both nitrogenase MoFe protein P-clusters” (The Journal of Biological Chemistry, 2019)
No constants are given. Whether binding was seen depends on the method and setting. Some results given as binding are weak or reduced against the parent protein; the word gives no strength. Tags and fused reporters may be left off the sequences shown.

T1: MoFe protein^StrΔZ (Strep-tagged nitrogenase MoFe protein produced in a nifZ-deletion strain) (Azotobacter vinelandii) (UniProt P07328+P07329)
T1 sequence 1: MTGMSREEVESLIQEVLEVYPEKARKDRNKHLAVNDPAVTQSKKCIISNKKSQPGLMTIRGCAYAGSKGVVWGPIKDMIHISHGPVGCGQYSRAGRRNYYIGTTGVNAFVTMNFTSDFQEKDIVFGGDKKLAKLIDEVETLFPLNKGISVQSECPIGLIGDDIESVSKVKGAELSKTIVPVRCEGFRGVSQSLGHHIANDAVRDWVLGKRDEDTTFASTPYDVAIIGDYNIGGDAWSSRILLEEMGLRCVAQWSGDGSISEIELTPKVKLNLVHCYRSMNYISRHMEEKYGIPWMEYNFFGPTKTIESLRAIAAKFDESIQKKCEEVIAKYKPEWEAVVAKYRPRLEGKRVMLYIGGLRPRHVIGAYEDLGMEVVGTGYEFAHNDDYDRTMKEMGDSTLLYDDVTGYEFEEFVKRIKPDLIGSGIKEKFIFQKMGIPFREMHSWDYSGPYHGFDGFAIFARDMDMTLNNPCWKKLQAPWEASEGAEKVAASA
T1 sequence 2: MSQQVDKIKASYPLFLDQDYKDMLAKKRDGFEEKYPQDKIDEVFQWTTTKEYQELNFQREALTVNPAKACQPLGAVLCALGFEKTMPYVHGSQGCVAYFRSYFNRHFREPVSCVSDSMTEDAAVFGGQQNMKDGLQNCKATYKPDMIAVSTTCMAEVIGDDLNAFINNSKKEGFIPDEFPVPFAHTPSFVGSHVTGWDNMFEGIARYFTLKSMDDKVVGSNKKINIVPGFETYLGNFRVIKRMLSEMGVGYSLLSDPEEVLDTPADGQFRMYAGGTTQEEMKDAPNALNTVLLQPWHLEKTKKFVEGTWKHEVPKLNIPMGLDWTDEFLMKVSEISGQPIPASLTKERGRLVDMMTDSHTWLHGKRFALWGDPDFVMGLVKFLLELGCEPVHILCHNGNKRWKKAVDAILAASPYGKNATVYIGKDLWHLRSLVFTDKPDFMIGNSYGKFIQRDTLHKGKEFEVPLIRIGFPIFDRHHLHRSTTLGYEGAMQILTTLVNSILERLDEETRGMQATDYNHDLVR

T2: NifW^Str (Strep-tagged NifW) (UniProt P14888)
T2 sequence: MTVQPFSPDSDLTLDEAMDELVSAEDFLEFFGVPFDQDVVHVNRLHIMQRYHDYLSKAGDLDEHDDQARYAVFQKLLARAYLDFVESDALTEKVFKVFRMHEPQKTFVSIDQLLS

B1: NifW (accessory protein, endogenous) (natural protein, UniProt P14888 1-115, looked up)
chain: T2 sequence
notes: NifW, Azotobacter vinelandii; also called NifW assembly factor; source: endogenous, A. vinelandii DJ1182 or DJ2111 cell extract; co-purified with MoFe protein
B2: MoFe protein^HisΔZ (His-tagged nitrogenase MoFe protein produced in a nifZ-deletion strain) (complex, UniProt P07328 1-492; P07329 1-523)
chain 1: T1 sequence 1
chain 2: T1 sequence 2

How the values were obtained:
[1] = molecular target: T1, MoFe protein^StrΔZ (Strep-tagged nitrogenase MoFe protein produced in a nifZ-deletion strain) (Azotobacter vinelandii); assay: shift of the elution profile in anion-exchange chromatography; 32-fold excess of isolated NifW^Str added to STAC-purified MoFe protein^StrΔZ (cells derepressed 4 h) before anion-exchange chromatography; compared with the same sample without added NifW; both purified
[2] = molecular target: T2, NifW^Str (Strep-tagged NifW); assay: pull-down; Strep-Tactin column charged with NifW^Str; fraction 1 of IMAC- and anion-exchange-purified MoFe protein^HisΔZ (cells derepressed 12 h) passed over it; bound material eluted with biotin; SDS-PAGE; both purified
[3] = molecular target: T2, NifW^Str (Strep-tagged NifW); assay: condition: only the population of MoFe protein^HisΔZ without immature P-clusters (mature P-clusters and FeMo-cofactor; fraction 1a); pull-down; Strep-Tactin column charged with NifW^Str; fraction 1 of IMAC- and anion-exchange-purified MoFe protein^HisΔZ (cells derepressed 12 h) passed over it; bound material eluted with biotin; SDS-PAGE; both purified

Row | Binder | binding [1] | binding [2] | binding [3]
1 | B1 | binds | – | –
2 | B2 | – | binds | no binding
